# PMC8564520
# Chains of the proteins cited; added tags and fusions are not shown.
# UniProt P51784: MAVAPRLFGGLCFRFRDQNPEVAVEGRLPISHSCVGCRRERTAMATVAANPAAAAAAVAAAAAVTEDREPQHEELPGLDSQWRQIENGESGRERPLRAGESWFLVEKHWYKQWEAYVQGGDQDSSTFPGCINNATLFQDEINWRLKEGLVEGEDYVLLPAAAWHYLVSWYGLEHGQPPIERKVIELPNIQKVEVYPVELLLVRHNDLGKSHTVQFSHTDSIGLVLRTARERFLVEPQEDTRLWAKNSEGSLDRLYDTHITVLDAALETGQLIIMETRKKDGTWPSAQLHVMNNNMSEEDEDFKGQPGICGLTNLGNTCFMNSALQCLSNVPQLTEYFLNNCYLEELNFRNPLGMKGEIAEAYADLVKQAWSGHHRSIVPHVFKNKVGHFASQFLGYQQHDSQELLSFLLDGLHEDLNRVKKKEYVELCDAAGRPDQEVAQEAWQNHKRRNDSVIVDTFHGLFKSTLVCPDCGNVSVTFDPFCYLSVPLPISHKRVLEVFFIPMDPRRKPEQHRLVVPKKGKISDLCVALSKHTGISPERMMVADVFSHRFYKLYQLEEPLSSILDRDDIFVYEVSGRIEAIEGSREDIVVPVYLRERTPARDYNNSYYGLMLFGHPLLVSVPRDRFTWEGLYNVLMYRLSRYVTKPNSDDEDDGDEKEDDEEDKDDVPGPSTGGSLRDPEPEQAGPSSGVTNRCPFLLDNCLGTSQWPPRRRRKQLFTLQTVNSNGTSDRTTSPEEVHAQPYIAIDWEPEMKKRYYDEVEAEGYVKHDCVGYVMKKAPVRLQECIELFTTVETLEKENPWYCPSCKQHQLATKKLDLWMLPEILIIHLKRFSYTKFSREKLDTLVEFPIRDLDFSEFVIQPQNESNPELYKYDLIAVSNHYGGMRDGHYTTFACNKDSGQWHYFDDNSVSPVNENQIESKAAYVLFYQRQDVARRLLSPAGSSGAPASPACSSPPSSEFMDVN
# UniProt Q99873: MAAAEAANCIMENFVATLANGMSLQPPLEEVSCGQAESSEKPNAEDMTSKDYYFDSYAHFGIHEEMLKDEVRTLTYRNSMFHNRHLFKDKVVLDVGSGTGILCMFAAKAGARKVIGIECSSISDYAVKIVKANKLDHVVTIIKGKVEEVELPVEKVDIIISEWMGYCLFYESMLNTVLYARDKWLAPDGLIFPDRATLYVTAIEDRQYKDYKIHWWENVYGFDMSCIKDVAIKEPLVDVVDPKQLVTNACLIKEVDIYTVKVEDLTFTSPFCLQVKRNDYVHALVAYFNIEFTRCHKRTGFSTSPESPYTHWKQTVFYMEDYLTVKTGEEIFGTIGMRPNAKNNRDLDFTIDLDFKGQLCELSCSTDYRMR
# No constants are given. Whether binding was seen depends on the method and setting. For part of these data: Binding seen in cells or lysates may run through a third protein. Some results given as binding are weak or reduced against the parent protein; the word gives no strength. For part of these data: Sequences can lack the tags named with a protein.
# Key:
# [1] = target: T1, myc-tagged MRE11 (UniProt P49959); assay: co-IP; myc-MRE11 immunoprecipitated with anti-Myc (9E10) from HeLa-myc-MRE11 cells in 0.1% NP40 lysis buffer; associated PRMT1 detected by immunoblot; cells with doxycycline-induced shCTRL or shUSP11, or stably expressing USP11 or USP11-R433K
# T1 sequence: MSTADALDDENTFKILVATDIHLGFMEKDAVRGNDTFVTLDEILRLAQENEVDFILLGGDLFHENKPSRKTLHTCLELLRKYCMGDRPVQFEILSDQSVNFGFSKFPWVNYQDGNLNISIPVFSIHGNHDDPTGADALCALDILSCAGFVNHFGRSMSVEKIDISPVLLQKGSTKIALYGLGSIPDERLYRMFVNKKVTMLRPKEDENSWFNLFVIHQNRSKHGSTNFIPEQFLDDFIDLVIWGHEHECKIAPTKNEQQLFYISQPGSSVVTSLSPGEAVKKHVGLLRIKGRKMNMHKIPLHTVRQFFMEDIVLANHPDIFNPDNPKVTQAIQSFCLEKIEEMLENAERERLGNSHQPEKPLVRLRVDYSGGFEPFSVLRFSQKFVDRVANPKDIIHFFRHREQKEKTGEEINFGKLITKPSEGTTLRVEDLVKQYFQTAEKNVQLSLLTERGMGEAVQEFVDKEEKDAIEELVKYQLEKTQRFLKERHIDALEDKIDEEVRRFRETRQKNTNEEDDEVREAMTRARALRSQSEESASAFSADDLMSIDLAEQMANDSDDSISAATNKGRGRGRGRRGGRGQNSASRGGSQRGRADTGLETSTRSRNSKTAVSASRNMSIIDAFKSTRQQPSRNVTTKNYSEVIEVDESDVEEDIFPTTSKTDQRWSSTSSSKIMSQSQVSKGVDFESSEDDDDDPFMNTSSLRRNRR
# [2] = target: Flag-tagged USP11 (human) (UniProt P51784); assay: co-IP; Flag-tagged USP11 immunoprecipitated from MCF7 cells; endogenous PRMT1 detected by immunoblot
# [3] = target: recombinant GST-PRMT1 (UniProt Q99873); assay: pull-down; 1 ug GST or GST-PRMT1 on glutathione 4B sepharose beads, incubated with 2 ug recombinant human USP11 for at least 3 h; PBS/0.01% IGEPAL; 4 washes with PBS/0.01% NP40; immunoblot; both purified
substance,measurement,setting,value
"PRMT1 (endogenous, HeLa) (from UniProt Q99873 1-371) (enzyme)",binding,[1],binds
"PRMT1 (endogenous, MCF7) (from UniProt Q99873 1-371) (enzyme)",binding,[2],binds
recombinant human USP11 (from UniProt P51784 1-963) (enzyme),binding,[3],binds
